Laboratory results taken from patent US20190031754A1.
Results are given in words; binding and its absence hold for the method and conditions named. Some binding calls cover weakened binding; strength is not graded here.

By UniProt entry, the sequences of proteins in these tests, tags left out. Where a name states a change or a piece, a line headed by the entry shows the natural chain unless it says otherwise.
UniProt Q01974: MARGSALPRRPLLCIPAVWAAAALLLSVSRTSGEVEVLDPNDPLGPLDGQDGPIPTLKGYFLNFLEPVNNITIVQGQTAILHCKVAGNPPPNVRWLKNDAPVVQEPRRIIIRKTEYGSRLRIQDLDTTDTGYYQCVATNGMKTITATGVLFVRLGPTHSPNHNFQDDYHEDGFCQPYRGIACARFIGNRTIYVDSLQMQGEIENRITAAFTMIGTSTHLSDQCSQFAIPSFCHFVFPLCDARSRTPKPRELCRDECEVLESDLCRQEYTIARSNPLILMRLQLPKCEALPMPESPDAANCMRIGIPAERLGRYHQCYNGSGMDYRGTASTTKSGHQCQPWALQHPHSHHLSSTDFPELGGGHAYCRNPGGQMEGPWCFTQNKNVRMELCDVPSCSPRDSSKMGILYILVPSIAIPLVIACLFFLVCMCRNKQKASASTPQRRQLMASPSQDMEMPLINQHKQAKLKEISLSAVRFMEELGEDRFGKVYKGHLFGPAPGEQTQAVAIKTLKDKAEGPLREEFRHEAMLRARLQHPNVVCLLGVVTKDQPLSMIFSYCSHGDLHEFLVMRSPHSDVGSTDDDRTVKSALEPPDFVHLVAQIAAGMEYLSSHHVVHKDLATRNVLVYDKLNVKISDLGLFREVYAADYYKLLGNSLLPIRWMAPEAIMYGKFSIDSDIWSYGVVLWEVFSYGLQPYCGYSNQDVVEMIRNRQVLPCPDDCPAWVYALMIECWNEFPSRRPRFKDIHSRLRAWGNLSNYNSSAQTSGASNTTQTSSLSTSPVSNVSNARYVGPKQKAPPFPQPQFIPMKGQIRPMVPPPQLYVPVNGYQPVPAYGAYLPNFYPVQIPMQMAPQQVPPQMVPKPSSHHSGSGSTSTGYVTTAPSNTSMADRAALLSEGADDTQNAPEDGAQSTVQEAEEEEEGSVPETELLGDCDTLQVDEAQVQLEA
UniProt Q9Z138: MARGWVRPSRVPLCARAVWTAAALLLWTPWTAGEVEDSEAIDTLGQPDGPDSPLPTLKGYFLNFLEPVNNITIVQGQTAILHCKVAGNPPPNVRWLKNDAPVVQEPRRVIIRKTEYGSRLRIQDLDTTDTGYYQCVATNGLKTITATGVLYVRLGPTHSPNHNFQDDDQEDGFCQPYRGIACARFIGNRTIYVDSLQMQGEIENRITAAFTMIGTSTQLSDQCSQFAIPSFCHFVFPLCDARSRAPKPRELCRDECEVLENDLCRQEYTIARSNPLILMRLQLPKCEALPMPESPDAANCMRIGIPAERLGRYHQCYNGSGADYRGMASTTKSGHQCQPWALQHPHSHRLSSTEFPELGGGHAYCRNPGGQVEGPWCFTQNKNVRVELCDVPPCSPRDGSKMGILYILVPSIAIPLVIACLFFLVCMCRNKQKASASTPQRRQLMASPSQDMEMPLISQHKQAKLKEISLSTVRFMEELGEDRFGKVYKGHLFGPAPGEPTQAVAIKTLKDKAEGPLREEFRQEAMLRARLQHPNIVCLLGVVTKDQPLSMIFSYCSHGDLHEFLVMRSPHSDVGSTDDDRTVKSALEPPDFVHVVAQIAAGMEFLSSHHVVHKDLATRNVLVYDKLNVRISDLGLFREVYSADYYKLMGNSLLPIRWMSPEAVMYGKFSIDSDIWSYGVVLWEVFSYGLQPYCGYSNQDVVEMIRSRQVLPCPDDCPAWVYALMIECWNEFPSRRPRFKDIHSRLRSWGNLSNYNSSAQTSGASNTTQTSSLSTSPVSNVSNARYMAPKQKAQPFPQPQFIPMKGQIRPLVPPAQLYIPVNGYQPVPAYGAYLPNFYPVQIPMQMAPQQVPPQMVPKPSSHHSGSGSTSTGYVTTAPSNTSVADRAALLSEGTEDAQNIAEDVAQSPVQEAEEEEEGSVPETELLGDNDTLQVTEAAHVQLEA

Experiments:
[1] = molecular target: recombinant cynomolgus twin strep-tagged ROR2 extracellular domain (cynomolgus monkey); experiment: ELISA on coated twin-strep cynomolgus ROR2 ECD (FIG. 14)
[2] = molecular target: recombinant human twin strep-tagged ROR2 extracellular domain (human) (UniProt Q01974); experiment: ELISA on coated twin-strep human ROR2 ECD (FIG. 14)
[3] = molecular target: recombinant murine twin strep-tagged ROR2 extracellular domain (mouse) (UniProt Q9Z138); experiment: ELISA, coated twin-strep ROR2 ECD 2 µg/mL, IgG1 from 500 ng/mL in 4-fold dilutions, anti-human Fc HRP, OD 490 nm
[4] = molecular target: recombinant murine twin strep-tagged ROR2 extracellular domain (mouse) (UniProt Q9Z138); experiment: ELISA on coated twin-strep mouse ROR2 ECD (FIG. 14)
[5] = molecular target: recombinant cynomolgus twin strep-tagged ROR2 extracellular domain (cynomolgus monkey); experiment: ELISA, coated twin-strep ROR2 ECD 2 µg/mL, IgG1 from 500 ng/mL in 4-fold dilutions, anti-human Fc HRP, OD 490 nm
[6] = molecular target: recombinant human twin strep-tagged ROR2 extracellular domain (human) (UniProt Q01974); experiment: ELISA, coated twin-strep ROR2 ECD 2 µg/mL, IgG1 from 500 ng/mL in 4-fold dilutions, anti-human Fc HRP, OD 490 nm [C]

Row | binding [1] | binding [2] | binding [3] | binding [4] | binding [5] | binding [6] | Binder
1 | binds |  |  |  |  |  | ERR2-316 (mAb005) (antibody, human IgG1, V domains shown) VH: QKQLVESGGRLVTPGGSLTLTCTVSGFSLSKYGVSWVRQAPGSGLEYIGTIGGSGTSYYASWAKSRSTITRNTNLNTVTLKMTSLTAADTATYFCARYFGWNTGFDIWGPGTLVTISS VL: DPVMTQTPSSVSEPVGGTVTIKCQASQSISNALAWYQQKPGQPPKRLIYKASTPASGVPSRFKGSRSGTEYTLTISGVQREDAATYYCLGFSVVSNDGWAFGAGTNVEIK
2 | binds | binds | binds | binds |  |  | ERR2-302 (mAb004) (antibody, human IgG1, V domains shown) VH: QKQLVESGGGLVKPGGSLTLTCTVSGFSLSSYAIGWVRQAPGNGLEWIGIINSYGSTYYASWAKSRSTITRNTNLNTVTLKMTSLTAADTATYFCARSPYGYVSAWGYHRLDLWGQGTLVTISS VL: SYELTQLPSVSVSLGQTARITCGGASIGSKVVHWYQQKPGLAPGLLIYDDDERPSGVPDRFSGSNSGDTATLTISGAQAGDEAEYYCQLWDGSDVVFGGGTQLTVTG
3 | binds |  |  |  | binds |  | XBR2-327 (mAb007) (antibody, human IgG1, V domains shown) VH: QEQLKESGGGLFKPTDTLTLTCTVSGFSLSSGAISWVRQAPGNGLEYIGFVNSLGNTYYANWAKSRSAITRNTNENTVTLKMTSLAAADTATYFCAKDYGNWAFDPWGPGTLVTVSS VL: DPVLTQTPSSVSAAVGGTVAINCQASQSISSYLSWYQQKPGQPPKLLIYGASKLASGVPSRFSGSGSGTEYTLTISGVQREDAATYYCLGGYASASYRTAFGGGTKLEIK
4 | binds |  |  |  |  |  | ERR2-317 (mAb006) (antibody, human IgG1, V domains shown) VH: QSLEESGGRLVTPGTPLTLTCTASGFSLSSYDMIWVRQAPGKGLEYIGIINAGGNTYYASWAKGRFTISRTSTTVDLKMTSPTTEDTATYFCARGSSWTGDIWGPGTLVTVSS VL: DPVLTQTPSSTSAAVGGTVTIKCQASQSISSYLSWYQQKPGQPPKQLIYAASTLASGVPSRFKGSGSGTEYTLTISGVQREDAATYYCLGGYASASYQTAFGGGTKVEIK
5 | binds |  |  |  |  |  | ERR2-308 (mAb037) (antibody, human IgG1, V domains shown) VH: QEQLEESGGRLVTPGTPLTLTCAVSGFSLSNYAMGWVRQAPGEGLEYIGWISAGGGAYYASWVNGRFTISKTSSTVDLKMTSLTAADTATYFCARGASNGCDLWGPGTLVTVSS VL: DPMLTQTPSSVSAVVGGTVTIKCQASQSITSWLSWYQQKPGQPPKLLIYGASHLASGVPSRFKGSGYGTEFTLTISGIQREDAATYYCLGGYSNSDIVFGGGTELEIL
6 | binds | binds | binds | binds | binds | binds | ERR2-Top35 (mAb130) (antibody, V domains shown) VH: QSVKESEGGLFKPMDTLTLTCTVSGFSLNTYGVSWVRQAPGNGLEWIGAVGSSGATNYASWAKSRSTITRNTNENTVTLKMTSLTAADTATYFCARDGYYSSGWGPYFSIWGPGTLVTVSS VL: SFVLTQPASVQVNLGQTVSLTCTAETLRSSYASWYQQKPGQAPVLLIYRDTSRPSGVPDRFSGSSSGNTATLTISGAQAGDEADYYCATSDGSGSRYYVFGGGTQLTVTG
